Measured values reported in PubChem BioAssay AID445 (National Center for Advancing Translational Sciences (NCATS), 2006).
Where “and” joins values, the source holds several entries; their conditions need not be identical. Equal values may be shown once. Some of the results follow. These are further read-outs of the screen, such as a control signal, another cell line or another target. No call is given for them. Compounds called inactive in the main read-out are mostly missing here. Words in brackets tell the shape of the fitted curve; partial curves, single points and poor fits give uncertain potencies.

Experiment: IkB Signaling
Settings: ABC-DLBCL IkBa-CBG/CBR dual luciferase ratio (green luciferase fused to IkBa over red control in OCI-Ly3 lymphoma cells), 4 h
Procedure, shortened: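 In this assay, an IκBα–CBG68 fusion accumulates when IKK-driven degradation is blocked; native CBR normalizes for cell number. OCI-Ly3 cells were treated 4 h with compound and doxycycline, then green and red light read after Chroma-Glo addition.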

[1] = measured here: control luc red channel unless noted

Question: With O=C(NCc1ccccc1Cl)c1ccc(Nc2nc3ccccc3n3nnnc23)cc1 as the compound, how does the AC50 [1] read?
Answer: The AC50 was 1.26 µM [falling, full curve].

Question: With CCc1ccc(C2c3c(-c4cc(C)ccc4O)n[nH]c3C(=O)N2Cc2cccnc2)cc1 (centres undefined) as the compound, how does the AC50 [1] read?
Answer: Its AC50 is 15.8 µM [falling, partial curve].

Question: With Cn1cc(CCCC(=O)NCc2ccccc2Cl)c2ccccc21 as the compound, how does the AC50 [1] read?
Answer: Its AC50 is 0.0794 µM [falling, full curve, poor fit].

Question: For CCOc1ccc(OCC)c(Nc2cc(C)nc3nc(-c4ccco4)nn23)c1, which AC50 [1] is on record?
Answer: The AC50 was 3.98 µM [falling, partial curve].

Question: Which AC50 [1] does the source give for CNC(=O)c1[nH]cnc1C(=O)Nc1cccc(OC)c1 here?
Answer: Its AC50 is 10 µM [falling, partial curve].

Question: With O=C(c1ccc([N+](=O)[O-])cc1)N1CCN(c2ccc(Nc3ccccc3)nn2)CC1 as the compound, how does the AC50 [1] read?
Answer: Its AC50 is 15.8 µM [falling, partial curve].

Question: What does the source list for Cn1cc(C(=O)c2ccc(F)cc2)cc1-c1nc2ccccc2n1C?
Answer: AC50 (measured here: IkB-luc green channel): 12.6 µM [falling, partial curve]; AC50 (measured here: control luc red channel): 10 µM [falling, partial curve]

Question: For COc1cccc2c1Oc1ncccc1N(C(=O)Nc1cccc(Cl)c1)C2, which AC50 [1] is on record?
Answer: The AC50 was 25.1 µM [falling, partial curve].

Question: With COc1ccc(N(C)S(=O)(=O)c2cccc3cccnc23)c(OC)c1 as the compound, how does the AC50 [1] read?
Answer: The AC50 was 25.1 µM [falling, partial curve].

Question: Which AC50 [1] does the source give for Cn1nc(-c2ccc(C(=O)Nc3cccc(C(F)(F)F)c3)cc2)c2ccccc2c1=O here?
Answer: The AC50 was 25.1 µM [falling, partial curve].

Question: Which AC50 [1] does the source give for CCn1c(=O)n(CC)c2cc(S(=O)(=O)N3CCc4ccccc43)ccc21 here?
Answer: Its AC50 is 15.8 µM [falling, partial curve].

Question: With CCOc1ccc(NS(=O)(=O)c2ccc3[nH]cc(C(=O)NCc4ccccc4)c(=O)c3c2)cc1 as the compound, how does the AC50 [1] read?
Answer: Its AC50 is 3.16 µM [falling, full curve].

Question: With Cc1cccc(CNC(=O)c2ccc3c(c2)N(C)C(=O)C2CCCCN32)c1 (centres undefined) as the compound, how does the AC50 [1] read?
Answer: Its AC50 is 7.94 µM [falling, full curve].

Question: Which AC50 [1] does the source give for COc1cccc(NC(=O)CN2C(=O)C3(OCCCO3)c3ccccc32)c1 here?
Answer: The AC50 was 12.6 µM [falling, partial curve].

Question: For COc1ccc(Cn2ccc3nc(C)c(C(=O)Nc4ccc(OC(F)(F)F)cc4)cc3c2=O)cc1, which AC50 [1] is on record?
Answer: The AC50 was 1.58 µM [falling, full curve, poor fit].

Question: For CCCCC(=O)OC1=C(C(=O)c2ccccc2)N(CC)S(=O)(=O)c2ccccc21, which AC50 [1] is on record?
Answer: The AC50 was 12.6 µM [falling, partial curve].

Question: With O=C(Nc1cccc(-c2nc3ccccc3o2)c1)c1cccc(Br)c1 as the compound, how does the AC50 [1] read?
Answer: The AC50 was 0.0794 µM [falling, full curve].

Question: For C=CCN1C(c2ccc(OCC)cc2)=CS/C1=C(\C#N)c1nnc2n1CCCCC2, which AC50 [1] is on record?
Answer: The AC50 was 25.1 µM [falling, partial curve].

Question: Which AC50 [1] does the source give for COc1ccccc1OCc1nnc(SCC(=O)c2cc(Cl)ccc2OC)o1 here?
Answer: Its AC50 is 39.8 µM [falling, partial curve].

Question: For CC(C)n1c(C(=O)OCC(=O)NCc2ccc3c(c2)OCO3)cc2occc21, which AC50 [1] is on record?
Answer: Its AC50 is 39.8 µM [falling, single point].

Question: With CCOC(=O)c1c(Nc2cc(C)cc(C)c2)nnc(-c2ccccc2)c1-c1ccccc1 as the compound, how does the AC50 [1] read?
Answer: Its AC50 is 12.6 µM [falling, partial curve].

Question: With Cc1cc(NC(=O)Cn2nnc3sc4c(c3c2=O)CCC(C(C)(C)C)C4)no1 (centres undefined) as the compound, how does the AC50 [1] read?
Answer: Its AC50 is 31.6 µM [falling, single point].

Question: With CC1CCN(S(=O)(=O)c2ccc3nc(Nc4ccc(C#N)cc4)ccc3c2)CC1 as the compound, how does the AC50 [1] read?
Answer: The AC50 was 20 µM [falling, single point].

Question: Which AC50 [1] does the source give for O=C(O)c1cc([N+](=O)[O-])ccc1NCCCc1ccccc1 here?
Answer: The AC50 was 631 nM [falling, full curve] and 126 nM [falling, full curve].

Question: With O=C(NCC(c1cccnc1)N1CCc2ccccc2C1)C(=O)Nc1ccccc1 (centres undefined) as the compound, how does the AC50 [1] read?
Answer: The AC50 was 3.16 µM [falling, partial curve, poor fit].

Question: For COc1ccccc1CNS(=O)(=O)c1ccc(F)c(C(=O)Nc2cc(Cl)ccc2OC)c1, which AC50 [1] is on record?
Answer: The AC50 was 10 µM [falling, partial curve].

Question: Which AC50 [1] does the source give for COc1ccc(NC(=O)C2CCCN(S(=O)(=O)c3cccs3)C2)cc1 (centres undefined) here?
Answer: Its AC50 is 20 µM [falling, partial curve].

Question: Which AC50 [1] does the source give for CCN1CCN(C(c2ccccc2)c2c(O)cc(C)n(Cc3ccco3)c2=O)CC1 (centres undefined) here?
Answer: The AC50 was 25.1 µM [falling, partial curve, poor fit].

Question: For N#C/C(=C/c1ccc(Cl)cc1Cl)c1nc2ccccc2c(=O)[nH]1, which AC50 [1] is on record?
Answer: The AC50 was 0.316 µM [falling, full curve].

Question: Which AC50 [1] does the source give for COC(=O)c1c(N)n(-c2ccc(OC)c(Cl)c2)c2nc3ccccc3nc12 here?
Answer: The AC50 was 0.398 µM [rising, full curve].

Question: Which AC50 [1] does the source give for O=C(Nc1ccccc1F)c1ccc(-c2ccccc2)s1 here?
Answer: The AC50 was 0.00316 µM [falling, full curve].

Question: For CCN(CC)C(=O)c1sc2c(c1C)c(=O)n(-c1ccc(Cl)c(Cl)c1)c(=O)n2CC(=O)Nc1cccc(OC)c1, which AC50 [1] is on record?
Answer: The AC50 was 10 µM [falling, partial curve].

Question: With CCOC(=O)c1nnn(CC(=O)NC(=O)Nc2cccc(CC)c2)c1C(=O)OCC as the compound, how does the AC50 [1] read?
Answer: The AC50 was 25.1 µM [falling, partial curve].

Question: For CSc1nsc(SCC(=O)N2CCCc3ccccc32)n1, which AC50 [1] is on record?
Answer: Its AC50 is 20 µM [falling, single point].

Question: With COc1ccc(NC(=O)CSc2nnc(-c3ccoc3C)n2CCc2ccccc2)cc1 as the compound, how does the AC50 [1] read?
Answer: Its AC50 is 10 µM [falling, partial curve].

Question: With Cc1nc2ccc(F)cc2cc1C(=O)NCC1CCCO1 (centres undefined) as the compound, how does the AC50 [1] read?
Answer: The AC50 was 7.94 µM [falling, full curve, poor fit].

Question: Which AC50 [1] does the source give for O=C(CCn1c(=O)c2cccn2c2ccccc21)Nc1ccc(F)cc1 here?
Answer: Its AC50 is 12.6 µM [falling, partial curve].

Question: For Cc1cc(C)n(-c2nnc(Nc3cc(Cl)ccc3C)c3ccccc23)n1, which AC50 [1] is on record?
Answer: The AC50 was 15.8 µM [falling, partial curve].

Question: Which AC50 [1] does the source give for Cc1nc(-c2ccc(C)c(S(=O)(=O)N3CCC(C(=O)Nc4ccc(Cl)cc4)CC3)c2)no1 here?
Answer: The AC50 was 10 µM [falling, partial curve].

Question: Which AC50 [1] does the source give for CCCCCN=c1ccn(Cc2ccccc2)c2ccccc12 here?
Answer: Its AC50 is 15.8 µM [falling, partial curve].

Question: For COc1cc2c(cc1OC)[C@@H]1C(=O)c3ccc4c(c3O[C@@H]1CO2)C=CC(C)(C)O4, which AC50 [1] is on record?
Answer: Its AC50 is 15.8 µM [falling, partial curve].

Question: For Cc1ccccc1NC(=O)c1ccc(F)c(S(=O)(=O)N(C)C2CCCCC2)c1, which AC50 [1] is on record?
Answer: Its AC50 is 31.6 µM [falling, single point].

Question: With Cc1ccccc1NC(=O)C1CCN(C(=O)c2cnn(-c3ccccc3)c2-n2cccc2)CC1 as the compound, how does the AC50 [1] read?
Answer: Its AC50 is 25.1 µM [falling, single point].

Question: For Cc1cccc(-c2nc3nc(C)cc(NCc4ccccc4Cl)n3n2)c1, which AC50 [1] is on record?
Answer: Its AC50 is 25.1 µM [falling, partial curve].

Question: With CCc1ccc(-n2c(N3CCN(c4cccc(Cl)c4)CC3)nc3ccccc3c2=O)cc1 as the compound, how does the AC50 [1] read?
Answer: The AC50 was 31.6 µM [falling, single point].

Question: Which AC50 [1] does the source give for Cc1ccc(NC(=O)N(Cc2cc3cc(C)cc(C)c3[nH]c2=O)CC2COCCO2)cc1 (centres undefined) here?
Answer: Its AC50 is 31.6 µM [falling, single point].

Question: With Cn1c(O)c(C=NCCCCCC(=O)O)c(=O)n(C)c1=O as the compound, how does the AC50 [1] read?
Answer: Its AC50 is 25.1 µM [falling, partial curve].

Question: Which AC50 [1] does the source give for O=C(NCC(c1cccs1)S(=O)(=O)c1cccs1)c1ccc(Cl)cc1 (centres undefined) here?
Answer: The AC50 was 20 µM [falling, single point].

Question: For Nc1nnc(SCC(=O)Nc2ccccc2)s1, which AC50 [1] is on record?
Answer: The AC50 was 2 µM [falling, full curve].

Question: For c1csc(Cn2c(-c3cccs3)nc3ccccc32)c1, which AC50 [1] is on record?
Answer: The AC50 was 25.1 µM [falling, partial curve].

Question: For Cc1ccc2nc(-c3c[nH]c4ccccc34)c(Nc3ccccc3C)n2c1, which AC50 [1] is on record?
Answer: Its AC50 is 0.0501 µM [falling, full curve].

Question: With CCN1CCN(C(=O)Cn2ncc3c4ccccc4n(Cc4ccccc4)c3c2=O)CC1 as the compound, how does the AC50 [1] read?
Answer: The AC50 was 25.1 µM [falling, single point].

Question: Which AC50 [1] does the source give for Cc1cc(C)c(Cn2c3ccccc3c3cnn(CC(=O)NCc4ccccn4)c(=O)c32)c(C)c1 here?
Answer: Its AC50 is 39.8 µM [rising, single point] [measured here: IkB-luc green channel].

Question: Which AC50 [1] does the source give for CCOC(=O)Cc1csc(NC(=O)c2ccc(S(=O)(=O)N3CCCC3)cc2)n1 here?
Answer: The AC50 was 15.8 µM [falling, partial curve].

Question: With O=C(CCS(=O)(=O)c1ccc(Br)cc1)Nc1ccc(Cl)c(C(F)(F)F)c1 as the compound, how does the AC50 [1] read?
Answer: Its AC50 is 0.0316 µM [falling, full curve, poor fit].

Question: Which AC50 [1] does the source give for COc1ccccc1CCNC(=O)C(=O)NCC(c1cccs1)S(=O)(=O)c1ccccc1 (centres undefined) here?
Answer: The AC50 was 0.0794 µM [falling, full curve, poor fit].

Question: For CCc1ccc(-c2nc(-c3ccncc3)no2)cc1, which AC50 [1] is on record?
Answer: Its AC50 is 12.6 µM [falling, partial curve].

Question: Which AC50 [1] does the source give for COc1cc(NC(=O)C2CCN(S(=O)(=O)c3ccc4c(c3)oc(=O)n4C)CC2)cc(OC)c1 here?
Answer: Its AC50 is 12.6 µM [falling, partial curve].

Question: Which AC50 [1] does the source give for CCOc1ccc(CN2C(=O)c3ccccc3Sc3ccc(C(=O)NC)cc32)cc1 here?
Answer: The AC50 was 20 µM [falling, single point].

Question: For CC(C)c1cnc2c(c1SCc1cccc(F)c1)c(=O)n(C)c(=O)n2C, which AC50 [1] is on record?
Answer: Its AC50 is 39.8 µM [falling, single point].

Question: Which AC50 [1] does the source give for CC(=O)N1CCc2cc(Br)cc(S(=O)(=O)N3CCC(C)CC3)c21 here?
Answer: The AC50 was 39.8 µM [falling, single point].

Question: With Cc1ccccc1Nc1nc(N)nc(CN(C)c2ccccc2)n1 as the compound, how does the AC50 [1] read?
Answer: The AC50 was 20 µM [falling, single point].

Question: Which AC50 [1] does the source give for COc1cc(NC(=O)C2CCCN2S(=O)(=O)c2cccc3cccnc23)cc(OC)c1OC (centres undefined) here?
Answer: Its AC50 is 3.16 µM [rising, full curve, poor fit].
